These are yes or no findings as the source states them, for the method shown. Binding seen in cells or lysates may run through a third protein. Binding calls can cover weak binding; strength is not graded here.
Biological target: T1, HAI-2 expressed in A549 cells from a HAI-2.tet.aOn gene upon doxycycline induction (UniProt O43291)
T1 sequence: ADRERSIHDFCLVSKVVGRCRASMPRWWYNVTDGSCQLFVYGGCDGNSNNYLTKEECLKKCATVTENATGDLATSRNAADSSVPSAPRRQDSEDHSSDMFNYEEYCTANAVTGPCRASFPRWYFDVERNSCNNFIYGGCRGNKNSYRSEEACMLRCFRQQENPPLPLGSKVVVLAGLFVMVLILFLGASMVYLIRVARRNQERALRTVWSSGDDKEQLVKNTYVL
Experiment: co-IP; A549 cells with HAI-2.tet.aOn gene, doxycycline-induced; purified human plasminogen or plasmin; HAI-2 pulled down by anti-c-Myc mAb (9E10); immunoblot with anti-PLG and anti-HAI-2 pAbs; only the binder purified

binding | Substance
binds | human active plasmin (enzyme)
binds | purified human plasminogen
